This is one part of the list.

Chains of the proteins cited; added tags and fusions are not shown. Lines headed by an entry give the natural chain unless they say otherwise; changes in a name come on top.
UniProt Q14166: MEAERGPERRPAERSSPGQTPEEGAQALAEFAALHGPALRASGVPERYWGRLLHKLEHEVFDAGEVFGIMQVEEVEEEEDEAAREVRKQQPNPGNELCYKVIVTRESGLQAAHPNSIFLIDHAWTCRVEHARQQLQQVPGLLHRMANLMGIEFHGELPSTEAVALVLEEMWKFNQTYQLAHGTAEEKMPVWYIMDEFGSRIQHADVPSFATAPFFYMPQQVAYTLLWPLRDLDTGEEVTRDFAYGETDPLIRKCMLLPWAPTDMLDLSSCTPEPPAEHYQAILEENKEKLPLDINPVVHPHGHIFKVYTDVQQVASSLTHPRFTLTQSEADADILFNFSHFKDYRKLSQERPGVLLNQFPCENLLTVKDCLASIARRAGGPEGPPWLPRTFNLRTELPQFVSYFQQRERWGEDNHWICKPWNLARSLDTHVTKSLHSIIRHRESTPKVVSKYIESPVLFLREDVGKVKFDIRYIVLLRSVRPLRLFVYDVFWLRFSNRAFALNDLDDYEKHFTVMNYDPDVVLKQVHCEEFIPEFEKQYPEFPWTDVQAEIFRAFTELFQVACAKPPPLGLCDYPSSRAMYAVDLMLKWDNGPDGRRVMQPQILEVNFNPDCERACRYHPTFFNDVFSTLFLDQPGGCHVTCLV
UniProt Q8TEL6: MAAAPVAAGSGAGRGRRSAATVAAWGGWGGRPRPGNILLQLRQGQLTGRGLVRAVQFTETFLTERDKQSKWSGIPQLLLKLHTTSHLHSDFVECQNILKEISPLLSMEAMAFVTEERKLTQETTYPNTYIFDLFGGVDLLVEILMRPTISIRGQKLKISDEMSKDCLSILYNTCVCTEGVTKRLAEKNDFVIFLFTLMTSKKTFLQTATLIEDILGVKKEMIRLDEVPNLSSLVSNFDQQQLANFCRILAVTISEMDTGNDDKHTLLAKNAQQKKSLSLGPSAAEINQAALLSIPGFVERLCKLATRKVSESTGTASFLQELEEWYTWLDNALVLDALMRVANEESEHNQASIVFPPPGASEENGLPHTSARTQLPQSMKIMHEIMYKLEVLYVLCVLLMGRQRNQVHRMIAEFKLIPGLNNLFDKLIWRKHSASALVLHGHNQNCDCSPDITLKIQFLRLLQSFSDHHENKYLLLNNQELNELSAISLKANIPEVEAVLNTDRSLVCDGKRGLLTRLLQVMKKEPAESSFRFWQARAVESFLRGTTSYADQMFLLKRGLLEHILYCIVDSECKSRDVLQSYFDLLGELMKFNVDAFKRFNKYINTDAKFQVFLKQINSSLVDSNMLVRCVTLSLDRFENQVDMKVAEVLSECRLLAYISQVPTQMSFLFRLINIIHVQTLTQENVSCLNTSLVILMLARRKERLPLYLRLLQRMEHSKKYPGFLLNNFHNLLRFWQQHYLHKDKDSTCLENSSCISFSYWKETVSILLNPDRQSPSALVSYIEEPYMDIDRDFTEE
UniProt Q8WWH5: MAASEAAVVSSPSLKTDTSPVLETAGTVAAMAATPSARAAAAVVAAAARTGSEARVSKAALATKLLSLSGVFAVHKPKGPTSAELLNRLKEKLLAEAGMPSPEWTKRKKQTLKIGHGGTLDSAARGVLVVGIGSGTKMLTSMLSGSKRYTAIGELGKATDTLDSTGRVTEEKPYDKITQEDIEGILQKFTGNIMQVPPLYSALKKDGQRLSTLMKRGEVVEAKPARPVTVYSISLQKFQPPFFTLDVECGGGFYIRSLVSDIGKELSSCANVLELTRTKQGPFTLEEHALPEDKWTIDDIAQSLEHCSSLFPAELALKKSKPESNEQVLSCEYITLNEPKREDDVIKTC
UniProt Q99816: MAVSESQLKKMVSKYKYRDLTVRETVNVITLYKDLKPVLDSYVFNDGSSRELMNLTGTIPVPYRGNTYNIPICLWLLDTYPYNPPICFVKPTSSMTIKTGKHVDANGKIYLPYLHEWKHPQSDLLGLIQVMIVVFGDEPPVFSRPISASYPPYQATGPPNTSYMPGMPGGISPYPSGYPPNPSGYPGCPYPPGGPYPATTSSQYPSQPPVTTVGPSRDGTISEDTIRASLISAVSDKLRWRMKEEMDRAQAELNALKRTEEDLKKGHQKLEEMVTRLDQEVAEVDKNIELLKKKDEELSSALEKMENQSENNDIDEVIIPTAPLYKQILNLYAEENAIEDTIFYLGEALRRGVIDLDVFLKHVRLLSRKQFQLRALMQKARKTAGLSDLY
UniProt Q9UPN9: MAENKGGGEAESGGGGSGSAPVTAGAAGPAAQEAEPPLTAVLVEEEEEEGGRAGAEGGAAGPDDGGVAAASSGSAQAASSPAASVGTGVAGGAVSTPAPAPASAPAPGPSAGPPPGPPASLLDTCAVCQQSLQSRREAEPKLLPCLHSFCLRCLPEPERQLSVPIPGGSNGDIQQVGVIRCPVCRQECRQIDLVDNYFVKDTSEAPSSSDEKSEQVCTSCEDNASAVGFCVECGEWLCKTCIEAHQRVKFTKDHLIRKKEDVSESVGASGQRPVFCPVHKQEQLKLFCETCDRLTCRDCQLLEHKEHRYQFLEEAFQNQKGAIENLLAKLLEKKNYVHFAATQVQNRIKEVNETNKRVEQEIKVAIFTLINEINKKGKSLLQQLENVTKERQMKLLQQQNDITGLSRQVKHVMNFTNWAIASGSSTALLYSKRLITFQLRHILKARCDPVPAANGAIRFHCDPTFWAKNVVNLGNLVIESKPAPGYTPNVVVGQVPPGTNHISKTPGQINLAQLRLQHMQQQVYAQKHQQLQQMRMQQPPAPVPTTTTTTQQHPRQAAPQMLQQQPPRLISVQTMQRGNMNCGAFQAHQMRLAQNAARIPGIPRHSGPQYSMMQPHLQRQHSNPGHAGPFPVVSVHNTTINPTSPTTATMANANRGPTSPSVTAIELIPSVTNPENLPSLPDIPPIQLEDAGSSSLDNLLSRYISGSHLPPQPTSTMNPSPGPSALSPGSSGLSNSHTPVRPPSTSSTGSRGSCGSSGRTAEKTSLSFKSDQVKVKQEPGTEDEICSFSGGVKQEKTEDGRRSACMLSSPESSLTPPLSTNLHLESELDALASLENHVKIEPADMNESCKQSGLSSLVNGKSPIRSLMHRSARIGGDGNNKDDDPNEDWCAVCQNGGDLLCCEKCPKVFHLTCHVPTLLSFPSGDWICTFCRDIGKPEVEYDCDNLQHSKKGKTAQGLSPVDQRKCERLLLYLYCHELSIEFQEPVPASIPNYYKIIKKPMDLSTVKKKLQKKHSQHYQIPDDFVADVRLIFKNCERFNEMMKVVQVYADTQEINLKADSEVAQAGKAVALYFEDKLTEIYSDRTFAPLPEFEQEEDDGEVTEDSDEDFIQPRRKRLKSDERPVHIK
UniProt Q9NX07: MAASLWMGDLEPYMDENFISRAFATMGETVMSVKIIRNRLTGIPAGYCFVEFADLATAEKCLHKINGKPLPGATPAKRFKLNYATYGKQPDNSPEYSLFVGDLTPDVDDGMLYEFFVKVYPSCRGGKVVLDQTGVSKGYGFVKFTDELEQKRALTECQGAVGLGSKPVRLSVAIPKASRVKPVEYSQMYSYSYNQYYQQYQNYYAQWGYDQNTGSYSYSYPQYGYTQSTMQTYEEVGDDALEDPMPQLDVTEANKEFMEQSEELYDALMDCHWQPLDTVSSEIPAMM
UniProt Q6NXR4: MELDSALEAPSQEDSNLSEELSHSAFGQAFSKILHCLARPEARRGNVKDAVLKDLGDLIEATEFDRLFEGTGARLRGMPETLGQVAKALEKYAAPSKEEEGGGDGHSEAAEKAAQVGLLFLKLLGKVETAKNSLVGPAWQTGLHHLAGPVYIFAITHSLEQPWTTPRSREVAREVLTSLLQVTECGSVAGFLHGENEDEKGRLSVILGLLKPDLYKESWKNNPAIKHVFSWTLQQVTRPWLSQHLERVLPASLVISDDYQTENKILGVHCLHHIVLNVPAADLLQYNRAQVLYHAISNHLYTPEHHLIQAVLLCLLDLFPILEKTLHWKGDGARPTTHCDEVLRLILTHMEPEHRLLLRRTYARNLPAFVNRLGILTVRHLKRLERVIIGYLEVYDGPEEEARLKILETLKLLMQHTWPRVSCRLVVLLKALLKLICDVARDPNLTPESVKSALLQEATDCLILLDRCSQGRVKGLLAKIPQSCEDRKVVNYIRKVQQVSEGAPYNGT
UniProt Q9H3H1: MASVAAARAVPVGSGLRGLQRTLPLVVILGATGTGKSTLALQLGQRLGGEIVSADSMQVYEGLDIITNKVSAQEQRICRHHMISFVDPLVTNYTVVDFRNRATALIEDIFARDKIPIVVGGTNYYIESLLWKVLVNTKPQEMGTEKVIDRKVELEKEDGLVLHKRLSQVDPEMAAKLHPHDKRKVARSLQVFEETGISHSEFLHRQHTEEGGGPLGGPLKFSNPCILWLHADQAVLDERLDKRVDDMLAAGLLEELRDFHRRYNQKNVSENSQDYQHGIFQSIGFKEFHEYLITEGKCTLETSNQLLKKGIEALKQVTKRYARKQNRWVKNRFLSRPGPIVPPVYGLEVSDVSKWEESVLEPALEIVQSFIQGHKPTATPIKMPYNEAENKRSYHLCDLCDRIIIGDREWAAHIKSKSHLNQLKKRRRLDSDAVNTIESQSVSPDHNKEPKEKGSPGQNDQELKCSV
UniProt Q12931: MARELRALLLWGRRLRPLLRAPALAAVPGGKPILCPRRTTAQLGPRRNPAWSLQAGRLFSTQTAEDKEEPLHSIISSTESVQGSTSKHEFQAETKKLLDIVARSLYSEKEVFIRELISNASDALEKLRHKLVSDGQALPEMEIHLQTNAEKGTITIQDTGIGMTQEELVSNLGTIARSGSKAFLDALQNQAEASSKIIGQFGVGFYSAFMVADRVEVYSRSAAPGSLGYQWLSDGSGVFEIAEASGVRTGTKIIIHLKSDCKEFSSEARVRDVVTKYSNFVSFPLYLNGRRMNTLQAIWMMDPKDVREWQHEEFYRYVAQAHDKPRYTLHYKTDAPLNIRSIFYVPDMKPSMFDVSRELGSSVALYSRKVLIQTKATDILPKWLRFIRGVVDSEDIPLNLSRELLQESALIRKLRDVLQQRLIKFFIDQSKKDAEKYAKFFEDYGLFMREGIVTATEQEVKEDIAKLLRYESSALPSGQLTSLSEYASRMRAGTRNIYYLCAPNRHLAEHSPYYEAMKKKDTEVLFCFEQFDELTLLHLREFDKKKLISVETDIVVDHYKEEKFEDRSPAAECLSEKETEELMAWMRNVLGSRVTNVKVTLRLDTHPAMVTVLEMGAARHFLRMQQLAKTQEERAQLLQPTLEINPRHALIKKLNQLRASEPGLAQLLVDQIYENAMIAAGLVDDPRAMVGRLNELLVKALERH
UniProt Q8NG11: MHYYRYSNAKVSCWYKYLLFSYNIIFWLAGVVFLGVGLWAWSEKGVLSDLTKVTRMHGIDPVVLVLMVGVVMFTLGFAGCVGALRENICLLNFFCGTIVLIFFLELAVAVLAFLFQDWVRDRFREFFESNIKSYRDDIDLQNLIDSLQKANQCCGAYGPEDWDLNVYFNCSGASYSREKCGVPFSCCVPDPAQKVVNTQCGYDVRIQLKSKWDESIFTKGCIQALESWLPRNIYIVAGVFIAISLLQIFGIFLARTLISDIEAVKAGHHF
UniProt Q96FX7: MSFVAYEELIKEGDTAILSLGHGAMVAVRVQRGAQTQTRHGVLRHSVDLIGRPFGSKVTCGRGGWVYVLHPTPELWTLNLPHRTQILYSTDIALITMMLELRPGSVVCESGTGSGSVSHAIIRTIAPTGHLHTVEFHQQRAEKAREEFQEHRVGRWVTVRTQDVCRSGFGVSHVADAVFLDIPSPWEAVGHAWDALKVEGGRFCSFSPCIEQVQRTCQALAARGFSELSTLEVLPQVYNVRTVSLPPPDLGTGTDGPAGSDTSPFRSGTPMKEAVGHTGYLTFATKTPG
UniProt Q5BVD1: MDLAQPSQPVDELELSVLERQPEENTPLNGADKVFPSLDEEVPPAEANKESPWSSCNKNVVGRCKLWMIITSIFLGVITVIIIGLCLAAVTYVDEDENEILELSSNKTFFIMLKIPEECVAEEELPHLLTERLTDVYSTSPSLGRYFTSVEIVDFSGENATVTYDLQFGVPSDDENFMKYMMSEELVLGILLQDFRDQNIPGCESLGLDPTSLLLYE
UniProt Q6PJ69: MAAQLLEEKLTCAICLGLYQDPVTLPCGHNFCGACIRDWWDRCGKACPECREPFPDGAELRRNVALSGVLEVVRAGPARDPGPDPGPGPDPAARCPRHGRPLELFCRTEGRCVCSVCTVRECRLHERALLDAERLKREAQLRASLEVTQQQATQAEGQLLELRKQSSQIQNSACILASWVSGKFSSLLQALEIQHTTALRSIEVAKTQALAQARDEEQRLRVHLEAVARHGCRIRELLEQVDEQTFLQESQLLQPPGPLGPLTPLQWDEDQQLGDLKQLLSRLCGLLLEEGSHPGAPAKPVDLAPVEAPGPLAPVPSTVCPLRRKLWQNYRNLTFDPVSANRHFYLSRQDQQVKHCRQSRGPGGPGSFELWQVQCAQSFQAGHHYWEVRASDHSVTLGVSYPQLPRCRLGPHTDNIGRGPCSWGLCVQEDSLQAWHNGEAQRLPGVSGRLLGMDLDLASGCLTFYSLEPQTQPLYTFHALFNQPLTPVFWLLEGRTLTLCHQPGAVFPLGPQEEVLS

Compound in the assay: CC(C)(O)CC(=O)NCCn1ccc2ncnc(Nc3ccc(Oc4cccc(C(F)(F)F)c4)c(Cl)c3)c21
The assay is described as follows: log2 fold change, soluble protein after heating vs DMSO (PISA); higher = thermal stabilisation; K562 lysate, 10 uM; active = over 0.2 and 3.5 SD of the protein, either way, in both replicates (recomputed). The method, boiled down: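 A 30 min treatment with 10 μM compound was applied to crude K562 extract at 1 mg/mL protein in PBS pH 7.4 with 1 mM MgCl2. Heating for 3 min spanned 48°C-58°C, after which aliquots were pooled, adjusted to 0.5% NP-40 at 4°C and spun at 21,000xg for 90 min. TMTpro 16plex LC-MS/MS of the supernatant, with channel sums equalised, gave values recorded as log-two fold change in thermal stability against solvent controls, from duplicates.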
On to TTLL12 (UniProt Q14166), for which the log2 fold change is inactive: 0.005.
For TTC33 (UniProt Q6PID6), the log2 fold change was inactive: -0.039.
For TRMT1 (UniProt Q9NXH9), the log2 fold change is inactive: -0.029.
To TRAPPC1 (UniProt Q9Y5R8) belongs inactive: 0.024; to TRPC4AP (UniProt Q8TEL6), inactive: -0.029; to TSC2 isoform 4 (UniProt P49815), inactive: -0.016.
With TSEN15 (UniProt Q8WW01) the figure was inactive: 0.016; with TRUB1 (UniProt Q8WWH5), inactive: -0.006; with TSG101 (UniProt Q99816), inactive: 0.057.
To TTI1 (UniProt O43156) belongs inactive: -0.049.
As for TTL (UniProt Q8NG68), the log2 fold change is inactive: 0.037.
With TRMT6 (UniProt Q9UJA5) the figure was inactive: -0.007; with TTC5 (UniProt Q8N0Z6), inactive: 0.001.
With TRIM33 isoform 2 (UniProt Q9UPN9) the figure was inactive: 0.022.
To TRNAU1AP (UniProt Q9NX07) belongs inactive: -0.045; to TTI2 (UniProt Q6NXR4), inactive: -0.062; to TRMT5 (UniProt Q32P41), inactive: 0.024.
Consider TRIT1 (UniProt Q9H3H1), for which the log2 fold change is inactive: 0.011.
To TRMT10A (UniProt Q8TBZ6) belongs inactive: -0.01.
With TRAP1 (UniProt Q12931) the figure was inactive: 0.008; with TSPAN14 (UniProt Q8NG11), inactive: 0.026; with TRMT61A (UniProt Q96FX7), inactive: 0.
Turning to TRMT61B (UniProt Q9BVS5), the log2 fold change was inactive: -0.04.
To TTMP isoform 3 (UniProt Q5BVD1) belongs inactive: -0.22; to TSR3 (UniProt Q9UJK0), inactive: -0.023; to TRAPPC2L (UniProt Q9UL33), inactive: -0.043.
With TTC1 (UniProt Q99614) the figure was inactive: -0.03; with TRIM65 (UniProt Q6PJ69), inactive: -0.035; with TRIM25 (UniProt Q14258), inactive: 0.055.
With TTC19 (UniProt Q6DKK2) the figure was inactive: -0.035.
Regarding TRIR (UniProt Q9BQ61), the log2 fold change was inactive: 0.015.
To TRMT11 (UniProt Q7Z4G4) belongs inactive: 0.002.
